Measured values published in doi:10.1101/2024.07.31.606047.
For at least one entry, the source does not settle the construct or the ends of the probe. At least one verdict was read from the data and is not stated in words by the source.

Sequences of proteins named here, by UniProt entry; tags and fusion partners are left off.
UniProt Q8N6T7, whole entry: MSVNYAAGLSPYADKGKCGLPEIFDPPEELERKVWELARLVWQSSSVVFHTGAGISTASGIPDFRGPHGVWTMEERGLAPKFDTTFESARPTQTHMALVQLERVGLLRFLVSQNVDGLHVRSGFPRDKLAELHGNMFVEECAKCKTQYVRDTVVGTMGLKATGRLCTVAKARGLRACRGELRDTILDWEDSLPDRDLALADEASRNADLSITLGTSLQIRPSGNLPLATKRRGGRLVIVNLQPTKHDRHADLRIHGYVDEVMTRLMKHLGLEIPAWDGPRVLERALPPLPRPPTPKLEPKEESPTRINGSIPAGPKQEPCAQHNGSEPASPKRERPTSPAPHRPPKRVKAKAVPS

Molecular target: SIRT6-WT (UniProt Q8N6T7)
Assay: EMSA
Conditions: 50 nM DNA, 2 mM MgCl2; residues 1-355

“CTACTGGTACGGCAGACAGGATGTATATATCTGACACGTGCCTGGAGACTAGGGAGTAATCCCCTTGGCGGTTAAAACGCGGGGGACAGCGCGTACGTGCGTTTAAGCGGTGCTAGAGCTGTCTACGACCAATTGAGCGGCCTCGGCACCGGGATTCTCCAGTATTCGAGGCCGTTC (double strand) [ds601 DNA]”: binds.
